Data from patent US20210230263A1.
Results are given in words; binding and its absence hold for the method and conditions named.

Assays:
INF-2 [1] = assay: ELISA on coated antigen (1 ug/ml), anti-hIgG-HRP, OD450
[2] = substrate: INF alpha A; assay: as above
INF-2 [3] = assay: ELISA, antigen coated at 1 µg/ml, anti-hIgG-HRP
[4] = substrate: INF alpha A; assay: ELISA, antigen coated at 1 µg/ml, anti-hIgG-HRP

binding (INF-2 [1])	binding [2]	binding (INF-2 [3])	binding [4]	Binder
no binding (tested: 100 ng/ml)	no binding (tested: 100 ng/ml)			hum10 (antibody, V domains shown) VH: QVQLVQSGAEVKKPGASVKVSCKASGYIFTSYWIHWIRQPPGKGLEWIGRIYPGTGNTYYNEKFKGRVTISADKSISTAYLQWSSLKASDTAMYYCARSYDSSCAYWGQGTLVTVSS VL: AIQLTQSPSSLSASVGDRVTITCSASSSVSYMHWYLQKPGQSPQLLIYETSKLASGVPSRFSGSGSGTDFTFTISSLEAEDAATYYCQQWSSNPYITFGQGTKVEIKR
no binding (tested: 100 ng/ml)	no binding (tested: 100 ng/ml)	no binding (tested: 100 ng/ml)	no binding (tested: 100 ng/ml)	CPS-14 (antibody, V domains shown) VH: QVQLVQSGAEVKKPGASVKVSCKASGYIFTSYWIHWIRQPPGKGLEWIGRIYPGTGRTYYNRKFKGRVTISADKSISTAYLQWSSLKASDTAMYYCARSYDYSVAYWGQGTLVTVSS VL: AIQLTQSPSSLSASVGDRVTITCSASSSVSYMHWYLQKPGQSPQLLIYETRKLASGVPSRFSGSGSGTDFTFTISSLEAEDAATYYCQQWSSNPYITFGQGTKVEIKR
		no binding (tested: 100 ng/ml)	no binding (tested: 100 ng/ml)	CPS-16 (antibody, V domains shown) VH: QVQLVQSGAEVKKPGASVKVSCKASGYIFRSYWIHWIRQPPGKGLEWIGRIYPGTGNTYYNRKFKGRVTISADKSISTAYLQWSSLKASDTAMYYCARSYMYSVAYWGQGTLVTVSS VL: AIQLTQSPSSLSASVGDRVTITCSASSSVSYMHWYLQKPGQSPQLLIYKTSKLASGVPSRFSGSGSGTDFTFTISSLEAEDAATYYCQQWSSNPYITFGQGTKVEIKR
		no binding (tested: 100 ng/ml)	no binding (tested: 100 ng/ml)	CPS-20 (antibody, V domains shown) VH: QVQLVQSGAEVKKPGASVKVSCKASGYIFRSYWIHWIRQPPGKGLEWIGRIYPGTGNTYYNRKFKGRVTISADKSISTAYLQWSSLKASDTAMYYCARSYMSSVGYWGQGTLVTVSS VL: AIQLTQSPSSLSASVGDRVTITCSASSSVSKMHWYLQKPGQSPQLLIYETRKLASGVPSRFSGSGSGTDFTFTISSLEAEDAATYYCQQWSSNPYITFGQGTKVEIKR
no binding (tested: 100 ng/ml)	no binding (tested: 100 ng/ml)	no binding (tested: 100 ng/ml)	no binding (tested: 100 ng/ml)	CPS-17 (antibody, V domains shown) VH: QVQLVQSGAEVKKPGASVKVSCKASGYIFRSYWIHWIRQPPGKGLEWIGRIYPGTGNTYYNRKFKGRVTISADKSISTAYLQWSSLKASDTAMYYCARSYMYSVAYWGQGTLVTVSS VL: AIQLTQSPSSLSASVGDRVTITCSASSSVSYMHWYLQKPGQSPQLLIYETRKLASGVPSRFSGSGSGTDFTFTISSLEAEDAATYYCQQWSSNPYITFGQGTKVEIKR
no binding (tested: 100 ng/ml)	no binding (tested: 100 ng/ml)			CPE-LC-E049K (antibody, V domains shown) VH: QVQLVQSGAEVKKPGASVKVSCKASGYIFTSYWIHWIRQPPGKGLEWIGRIYPGTGNTYYNEKFKGRVTISADKSISTAYLQWSSLKASDTAMYYCARSYDSSCAYWGQGTLVTVSS VL: AIQLTQSPSSLSASVGDRVTITCSASSSVSYMHWYLQKPGQSPQLLIYKTSKLASGVPSRFSGSGSGTDFTFTISSLEAEDAATYYCQQWSSNPYITFGQGTKVEIKR
		no binding (tested: 100 ng/ml)	no binding (tested: 100 ng/ml)	CPS-10 (antibody, V domains shown) VH: QVQLVQSGAEVKKPGASVKVSCKASGYIFRSYWIHWIRQPPGKGLEWIGRIYPGTGRTYYNEKFKGRVTISADKSISTAYLQWSSLKASDTAMYYCARSYDYSVAYWGQGTLVTVSS VL: AIQLTQSPSSLSASVGDRVTITCSASSSVSYMHWYLQKPGQSPQLLIYETSKLLSGVPSRFSGSGSGTDFTFTISSLEAEDAATYYCQQWSSNPYITFGQGTKVEIKR
		no binding (tested: 100 ng/ml)	no binding (tested: 100 ng/ml)	CPS-11 (antibody, V domains shown) VH: QVQLVQSGAEVKKPGASVKVSCKASGYIFRSYWIHWIRQPPGKGLEWIGRIYPGTGRTYYNEKFKGRVTISADKSISTAYLQWSSLKASDTAMYYCARSYDYSVAYWGQGTLVTVSS VL: AIQLTQSPSSLSASVGDRVTITCSASSSVSYMHWYLQKPGQSPQLLIYKTRKLASGVPSRFSGSGSGTDFTFTISSLEAEDAATYYCQQWSSNPYITFGQGTKVEIKR
no binding (tested: 100 ng/ml)	no binding (tested: 100 ng/ml)	no binding (tested: 100 ng/ml)	no binding (tested: 100 ng/ml)	CPS-02 (antibody, V domains shown) VH: QVQLVQSGAEVKKPGASVKVSCKASGYIFRSYWIHWIRQPPGKGLEWIGRIYPGTGRTYYNEKFKGRVTISADKSISTAYLQWSSLKASDTAMYYCARSYDSSVAYWGQGTLVTVSS VL: AIQLTQSPSSLSASVGDRVTITCSASSSVSYMHWYLQKPGQSPQLLIYKTRKLASGVPSRFSGSGSGTDFTFTISSLEAEDAATYYCQQWSSNPYITFGQGTKVEIKR
no binding (tested: 100 ng/ml)	no binding (tested: 100 ng/ml)	no binding (tested: 100 ng/ml)	no binding (tested: 100 ng/ml)	CPS-04 (antibody, V domains shown) VH: QVQLVQSGAEVKKPGASVKVSCKASGYIFRSYWIHWIRQPPGKGLEWIGRIYPGTGNTYYNRKFKGRVTISADKSISTAYLQWSSLKASDTAMYYCARSYDSSVAYWGQGTLVTVSS VL: AIQLTQSPSSLSASVGDRVTITCSASSSVSYMHWYLQKPGQSPQLLIYKTSKLLSGVPSRFSGSGSGTDFTFTISSLEAEDAATYYCQQWSSNPYITFGQGTKVEIKR
		no binding (tested: 100 ng/ml)	no binding (tested: 100 ng/ml)	CPS-01 (antibody, V domains shown) VH: QVQLVQSGAEVKKPGASVKVSCKASGYIFRSYWIHWIRQPPGKGLEWIGRIYPGTGRTYYNEKFKGRVTISADKSISTAYLQWSSLKASDTAMYYCARSYDSSVAYWGQGTLVTVSS VL: AIQLTQSPSSLSASVGDRVTITCSASSSVSYMHWYLQKPGQSPQLLIYKTSKLASGVPSRFSGSGSGTDFTFTISSLEAEDAATYYCQQWSSNPYITFGQGTKVEIKR
no binding (tested: 100 ng/ml)	no binding (tested: 100 ng/ml)	no binding (tested: 100 ng/ml)	no binding (tested: 100 ng/ml)	CPS-09 (antibody, V domains shown) VH: QVQLVQSGAEVKKPGASVKVSCKASGYIFRSYWIHWIRQPPGKGLEWIGRIYPGTGRTYYNEKFKGRVTISADKSISTAYLQWSSLKASDTAMYYCARSYDYSVAYWGQGTLVTVSS VL: AIQLTQSPSSLSASVGDRVTITCSASSSVSYMHWYLQKPGQSPQLLIYETRKLASGVPSRFSGSGSGTDFTFTISSLEAEDAATYYCQQWSSNPYITFGQGTKVEIKR
